# Primary screen of a compound library

Protein sequences, listed by entry. Tags and fused reporters are not part of them.
UniProt E9BF75, entry or part of it: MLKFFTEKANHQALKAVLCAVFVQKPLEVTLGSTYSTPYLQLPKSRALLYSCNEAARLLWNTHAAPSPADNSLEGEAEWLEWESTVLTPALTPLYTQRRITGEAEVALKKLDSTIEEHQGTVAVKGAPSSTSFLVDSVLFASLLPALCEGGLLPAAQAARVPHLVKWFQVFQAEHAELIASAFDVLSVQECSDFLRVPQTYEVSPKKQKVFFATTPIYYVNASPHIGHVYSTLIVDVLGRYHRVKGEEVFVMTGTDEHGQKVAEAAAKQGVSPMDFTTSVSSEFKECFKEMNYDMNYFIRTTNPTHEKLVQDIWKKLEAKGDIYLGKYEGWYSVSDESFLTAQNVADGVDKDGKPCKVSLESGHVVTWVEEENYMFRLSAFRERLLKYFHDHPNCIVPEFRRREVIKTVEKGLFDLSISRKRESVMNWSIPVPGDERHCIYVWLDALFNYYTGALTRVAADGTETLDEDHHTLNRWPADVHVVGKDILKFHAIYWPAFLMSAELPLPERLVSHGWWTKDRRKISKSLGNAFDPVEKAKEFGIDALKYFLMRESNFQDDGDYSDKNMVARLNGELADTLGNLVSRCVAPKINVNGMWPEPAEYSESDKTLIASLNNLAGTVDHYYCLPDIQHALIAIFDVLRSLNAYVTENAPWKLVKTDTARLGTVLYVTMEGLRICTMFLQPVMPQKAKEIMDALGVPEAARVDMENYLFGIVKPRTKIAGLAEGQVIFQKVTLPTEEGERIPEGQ

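Primary screen of methionyl-tRNA synthetase; the read-out is not stated. Target: Methionyl-tRNA synthetase (putative), Leishmania donovani (UniProt E9BF75). The test concentration is not given. The values are filed as inhibition. About 68,000 compounds were tested under these conditions; 0.035% (about 24) showed 50% or more at least once.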

All values are in %.
The controls that fix the scale are not given in the record; negative values are as filed.
Compounds were drawn at random from those tested, without regard to their results.

CN1CC[C@@H]2OC[C@H](C(=O)N(C)Cc3ccccn3)C[C@@H]2C1 gave 3.117%. Cc1cc(F)ccc1CNCCn1cccn1 read 9.735%. For Cc1cnn(CC2CCCN2C(=O)c2cccc3[nH]ncc23)c1 (stereo not given) the result was 16.19%. For CNC(=O)c1cc2c(nc1NCC(C)C)CCN(S(=O)(=O)C1CC1)CC2 the result was 13.01%. Result for Fc1cnc(N2CC[C@@H]3O[C@@H](COCc4ccccn4)CC[C@@H]32)nc1 was 5.109%. For Cc1nnc(NC(=O)CN(C)C2CCCN(c3cccnn3)C2)s1 (stereo not given) the result was 17.04%. With Cc1ccc(N2CCCC3(COCCN(c4ccccn4)C3)C2)nn1 (stereo not given) the screen gave -12.27%.

With CC(=O)Nc1ncc(S(=O)(=O)N2CCOCC2)s1 the screen gave 13.19%. For CCc1nc(C#N)c(N2CCC(c3nc(-c4ccccc4)no3)CC2)o1 the result was -2.484%. N#Cc1cc(F)ccc1CN1CCCCC1Cn1cncn1 (stereo not given) gave 7.397%. Result for CCS(=O)(=O)c1ccccc1N1CCC(NC(=O)C(C)C)CC1 was 26.82%. Result for COc1ccc(CN2C[C@H]3CCC[C@@H](CN(C)C4CC4)[C@H]3C2)cn1 was 3.833%. NC(=O)C1CCCN1Cc1ccccc1NC(=O)CC(F)(F)F (stereo not given) gave 11.6%. CCOc1ccc(S(=O)(=O)N(CCOC)Cc2ccncc2)cc1F read 18.31%.

With CCCc1nccn1-c1cccc(C(C)O)c1 (stereo not given) the screen gave 10.92%. CN(C)c1nc2c(c(N3CCc4c(c(CO)nn4C)C3)n1)CCNC2 read -0.2985%. With CC(=O)N1C[C@H](NC(=O)c2csc(C(C)C)c2)[C@@H](C(C)C)C1 the screen gave 6.587%. With CN(C)c1nc(CNC(=O)Nc2cccc([S+](C)[O-])c2)cs1 (stereo not given) the screen gave 17.78%. For CC(C)Oc1ncccc1CNC(=O)Nc1ccccn1 the result was 23.78%. Cc1ccc(CN(CCCN(C)C)Cc2cnc(C)n2C)o1 read 10.32%. Result for Cc1nc(C(=O)N2CCN(S(=O)(=O)N(C)C)CC2)c(-c2ccccc2)s1 was 5.831%.

With COc1cc(CN(C(=O)Nc2cccnc2OC)C2CC2)ccc1O the screen gave 14.17%. COCC1c2nnn(CC3CC3)c2CCN1C(=O)C1CCOCC1 (stereo not given) read 7.904%. CCc1ncc2c(n1)CN(CC(=O)Nc1cc(C)no1)CC2 read 23.41%. CCCn1ccnc1-c1cccc(NC(=O)[C@H]2CCC(=O)N2)c1 read 18.21%. With CCOCCNC(=O)c1cnc(Sc2nccn2C)c(Cl)c1 the screen gave 8.108%. CC(C)OCCCNC(=O)CS(=O)(=O)Cc1cccc(Cl)c1 gave 16.48%. C[C@H](NC(=O)N1CCC(Cc2ccccc2)CC1)C(=O)O read 1.7%.

For CN1CC(=O)N(c2cccnc2)CC12CCN(C(=O)c1cccnc1)C2 (stereo not given) the result was 7.113%. With CC(NC(=O)N1CCS(=O)(=O)CC1)c1c(F)cccc1Cl (stereo not given) the screen gave 20.53%. Result for CN(C)C(=O)CCS(=O)(=O)Cc1cc(Cl)c2c(c1)OCO2 was 14.8%. With CCOCC(=O)N1CCC(C)(c2nccs2)CC1 the screen gave 2.907%. CCCc1nc(C)c(C(=O)NC2CCN(C3CC3)C2)s1 (stereo not given) read 12.24%. Cc1noc(C)c1CC(=O)N1CCCC(n2ccnc2C)C1 (stereo not given) read 21.67%. CCC(=O)N1CCCC(C(=O)c2cnn(-c3ccc(F)cc3)c2N)C1 (stereo not given) gave 12.11%.

With CCc1nc(CC(=O)N2CCn3c(C)nnc3C2)cs1 the screen gave 13.16%.

The first 2 entries again:

| compound | inhibition |
|---|---|
| `CN1CC[C@@H]2OC[C@H](C(=O)N(C)Cc3ccccn3)C[C@@H]2C1` | 3.117 |
| `Cc1cc(F)ccc1CNCCn1cccn1` | 9.735 |

Measurements from “University of Dundee, Small-Polar-MMV Screening Library” (2021), ChEMBL document CHEMBL3988442.